Drawing on article doi:10.1101/2021.06.10.447992, this text covers binding for one substance.

Results are given in words; binding and its absence hold for the method and conditions named. Binding seen in cells or lysates may run through a third protein. Here binding means that the protein was enriched with, or labelled near, the bait; the list need not be complete. Sequences can lack the tags named with a protein.

The test concerns the target T1, COA7 with a C-terminal Flag epitope, expressed in COA7 knockout HEK293T cells (human) (UniProt Q96BR5).
T1 sequence: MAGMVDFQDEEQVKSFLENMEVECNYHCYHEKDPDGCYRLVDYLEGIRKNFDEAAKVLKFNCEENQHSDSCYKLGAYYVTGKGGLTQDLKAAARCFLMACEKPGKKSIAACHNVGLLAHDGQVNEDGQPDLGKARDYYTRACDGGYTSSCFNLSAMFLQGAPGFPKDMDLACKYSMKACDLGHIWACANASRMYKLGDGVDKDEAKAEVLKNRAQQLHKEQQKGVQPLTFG
The experiment in a line: affinity purification with mass spectrometry.

For the substance “disaggregase CLPB (human (endogenous in HEK293T))”, the binding result is “binds”.
